Assay results: PubChem BioAssay AID624297 (National Center for Advancing Translational Sciences (NCATS), 2012)
Screen size: about 340,000 compounds; about 6,200 (1.8%) were called active. Inconclusive means that the source gave no clear call. Such entries were picked first, then a sample of the others. Calls follow the shape of the dose curve; as a rule, active = well fitted activation curve with a large enough effect; inconclusive = small, poorly fitted or top-dose-only effect; inactive = no such curve, though single readings can be large or run the other way. Where the call is inconclusive, the potency comes from a doubtful curve fit.

Test: A quantitative high throughput screen for small molecules that induce DNA re-replication in SW480 colon adenocarcinoma cells. Also: nearly all actives have a fitted effect of over 55% in size. As to re-replication activation: % of control where 0% means no effect.
Details: Hoechst DNA content imaging, 48 h; re-replication activation: at 46.1 µM (top of the series) unless noted
In short: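 SW480 cells exposed to compounds for 48 hr at 37 C, 5% CO2, then Hoechst-stained 40 min. Nuclear DNA content imaged by fluorescence scanning (405 nm excitation, 500-530 nm emission); re-replication scored as increased high-intensity nuclei.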
Potency is read from the fitted curve at half-maximal effect.

Compound	re-replication activation	Potency
O=C(CCCn1c(=S)[nH]c2cc3c(cc2c1=O)OCO3)NCCc1ccccc1Cl	inactive: 7.28%	
C/C(=N\NC(=O)c1nnn(-c2nonc2N)c1CN(C)c1ccccc1)c1ccc(O)cc1	inactive: -12.7%	
COc1ccc(-c2oc3ccc(N4CCOCC4)cc3c2C#Cc2ccc(N)cc2)cc1		inconclusive: 2.59 µM [activator, single point]
O=c1c2ccccc2nc(-c2ccc(Cl)c(Cl)c2)n1O		inconclusive: 16.4 µM [activator, partial curve, poor fit]
CCN1CCN(C(=O)CSc2nc(N)cc(N)n2)CC1		inconclusive: 29.1 µM [activator, single point]
O=C(CSC(=S)N1CCCC1)Nc1ccc(Br)cc1Cl	inactive: 6.92%	
C=CCCCCCCCCC(=O)Nc1ncccn1		inconclusive: 18.4 µM [activator, single point]
CCOc1ccc(N2C(=O)CC(Sc3nc4ccc(OCC)cc4s3)C2=O)cc1 (centres undefined)		inconclusive: 29.1 µM [activator, single point]
COc1cccc(CN2CCCC(C(=O)Nc3ccc(-c4cscn4)cc3)C2)c1 (centres undefined)		inconclusive: 16.4 µM [activator, single point]
c1ccc(-n2cnc3cc(NCc4ccccn4)ccc32)cc1		active: 20.6 µM
CCN(Cc1ccccc1)C(=O)c1nn(-c2ccc(OC)cc2)c(=O)c2c1c1ccccc1n2C		inconclusive: 32.6 µM [activator, partial curve, poor fit]
COCCNc1oc(-c2cccs2)nc1S(=O)(=O)c1ccc(C)cc1	inactive: 1.44%	
Cc1ccc(NC(=O)COC(=O)Cn2cnc3ccccc32)c(C)c1	inactive: -4.89%	
O=C(O)CCCCCN1C(=O)/C(=C/c2ccncc2)SC1=S		inconclusive: 18.4 µM [activator, partial curve, poor fit]
COc1ccc(OC(=O)Cc2cccc3ccccc23)cc1	inactive: -41.9%	
O=C(NN1C(=O)/C(=C/C=C/c2ccco2)SC1=S)c1ccccc1O		inconclusive: 14.6 µM [activator, single point]
O=C(NC1CCCC1)c1cc(-c2ccc(Cl)cc2)on1	inactive: -18.1%	
NC(=O)c1ccc(NC(=O)COC(=O)c2c3c(nc4ccccc24)/C(=C\c2cccs2)CCC3)cc1		active: 20.6 µM
O=C(O)c1ccc2cccnc2c1O	inactive: 5.57%	
O=C(O)COc1ccc(NC(=O)c2ccco2)cc1		inconclusive: 29.1 µM [activator, partial curve, poor fit]
CCSS(=O)(=O)c1cccc2cccnc12		inconclusive: 20.6 µM [activator, single point]
COC(=O)CN(C)C(=O)c1ccc2nc(Cc3cccc(Cl)c3)oc2c1	inconclusive: 54.4% [activator]	
CCN(CCNC(=O)C1CCN(Cc2nc(-c3cccc(Cl)c3)oc2C)CC1)c1ccccc1		inconclusive: 29.1 µM [activator, single point]

A different layout for part of the listing above:

| Compound | re-replication activation | Potency |
| --- | --- | --- |
| O=C(O)CCCCCN1C(=O)/C(=C/c2ccncc2)SC1=S |  | inconclusive: 18.4 µM [activator, partial curve, poor fit] |
| COC(=O)CN(C)C(=O)c1ccc2nc(Cc3cccc(Cl)c3)oc2c1 | inconclusive: 54.4% [activator] |  |
| CCN(CCNC(=O)C1CCN(Cc2nc(-c3cccc(Cl)c3)oc2C)CC1)c1ccccc1 |  | inconclusive: 29.1 µM [activator, single point] |

The list continues:

Compound	re-replication activation	Potency
C#CCN1C(=O)C(O)(CC(=O)c2ccc3c(c2)OCCO3)c2ccccc21 (centres undefined)	inactive: -5.64%	
CCCCCCC(=O)Nc1ccc(Br)cn1		inconclusive: 20.6 µM [activator, single point]
Cn1c(CCN2CCCCC2)nc2cc(NC(=O)COc3ccc(Cl)cc3)ccc21		inconclusive: 23.1 µM [activator, single point]
CCOC(=O)c1ccc(N=c2sc(C(=O)OC)cc(=O)n2Cc2ccco2)cc1		inconclusive: 29.1 µM [activator, single point]
CCOC(=O)c1c(C)[nH]c(C(=O)COC(=O)c2oc3ccc(OC)cc3c2C)c1C	inactive: -9.5%	
Cc1noc2ncnc(Sc3ccc(Cl)cc3)c12		inconclusive: 29.1 µM [activator, single point]
C(=N\Nc1ncnc2ccccc12)/c1ccccc1		inconclusive: 23.1 µM [activator, partial curve, poor fit]
O=C(Nc1c(F)cc(F)cc1Br)c1cc2nc(C(F)F)cc(C(F)F)n2n1		inconclusive: 29.1 µM [activator, single point]
O=S(=O)(Nc1cccc(-c2cn3cccnc3n2)c1)c1ccccc1		inconclusive: 6.51 µM [activator, single point]
COc1ccc(-c2cc(=O)oc3c(C)c(OC(=O)c4cccs4)ccc23)cc1	inactive: -11.2%	
COc1ccc(S(=O)(=O)N(Cc2cccnc2)Cc2cc3ccccc3[nH]c2=O)cc1		inconclusive: 1.3 µM [activator, partial curve]
CCN1CCN(c2nc(C)nc3c2sc(=S)n3C)CC1	inconclusive: 65.8% [activator]	
N#CC1=C(N)Oc2cc(O)ccc2C1C1CCCCC1 (centres undefined)		inconclusive: 13 µM [activator, partial curve, poor fit]
Cc1ncc(N=Nc2ccccc2Cl)c(-c2ccccc2)n1		inconclusive: 23.1 µM [activator, partial curve, poor fit]
Cc1sc2ncnc(N3CCN(CCOc4ccc(Cl)cc4)CC3)c2c1C		inconclusive: 35.5 µM [activator, single point]
CCN(CC)CCn1c(=S)[nH]c2cc(C(=O)NCc3ccccc3Cl)ccc2c1=O		inconclusive: 29.1 µM [activator, single point]
CC(=O)c1sc(Nc2nc3cc4c(cc3s2)OCO4)nc1C		active: 20.6 µM
CCOC(=O)c1cc(CC)sc1NC(=O)c1cc([N+](=O)[O-])ccc1N1CCOCC1		active: 2.31 µM
O=[N+]([O-])c1cccc(S(=O)(=O)Nc2ccc(-c3ccc(N4CCOCC4)nn3)cc2)c1	inactive: -80.9%	
O=C(NC1CCCC1)c1ccc(CS(=O)(=O)Cc2ccccc2F)o1		inconclusive: 18.4 µM [activator, single point]
Cc1ccc(NC(=O)c2c3c(nc4ccccc24)CCC3)cc1S(=O)(=O)N(C)C	inactive: -2.43%	
O=C(Nc1ccc(C(=O)O)cc1)/C(=C\C=C\c1ccccc1)NC(=O)c1ccc(Br)cc1		inconclusive: 18.4 µM [activator, partial curve, poor fit]
O=C(Cc1ccccc1[N+](=O)[O-])OCC(=O)N1CCN(c2ccccc2)CC1		inconclusive: 0.517 µM [activator, full curve, poor fit]

Compound	re-replication activation	Potency
CN=c1scc(-c2ccc(F)cc2)n1/N=C/c1ccc(O)c(O)c1		active: 14.6 µM
COc1cccc(/C=C2/Sc3ccc(C(=O)NCCN4CCCCCC4)cc3NC2=O)c1		inconclusive: 18.4 µM [activator, single point]
COc1cccc(/C=N/Nc2ncnc3scc(-c4ccccc4)c23)c1OC		inconclusive: 29.1 µM [activator, single point]
Cc1ccc(Cn2nnc3c(=O)n(CC(=O)NCc4ccco4)cnc32)cc1		inconclusive: 29.1 µM [activator, single point]
Cc1cc(C(=O)NC2CC(C)(C)Cc3c2cnn3-c2ccccc2C)c(C)o1 (centres undefined)		inconclusive: 29.1 µM [activator, single point]
COc1ccc(C(=O)c2ccccc2)c(O)c1		inactive
COc1cccc(/C=C2\CCC(C3CCCC3)C2=O)c1OC (centres undefined)		inconclusive: 13 µM [activator, partial curve, poor fit]
CSc1sc(C(=O)NCC2CC2)cc1S(=O)(=O)C(C)C		inconclusive: 0.259 µM [activator, partial curve, poor fit]
CC(C)(C)OC(=O)N1O[C@H]2CC1[C@@H]1[C@@H]2N=NN1CCc1ccncc1		inconclusive: 13 µM [activator, partial curve, poor fit]
Cc1ccc(CNC(=O)c2ccc(Cl)c(S(N)(=O)=O)c2)n1C	inactive: -3.12%	
Cc1ccc(C(c2nnnn2CCC(C)C)N2CCN(C)CC2)cc1 (centres undefined)	inactive: -1.27%	
COc1ccc(CNC(=O)COC(=O)CCc2c[nH]c3ccccc23)cc1	inactive: 0.13%	
Cc1cc(C(=O)Nc2cccc(O)c2)c(C)o1	inactive: -7.36%	
CC(C)=CCC/C(C)=C/CNC(=O)C[C@H]1C[C@H](C(=O)N2CCOCC2)[C@@]2(C)c3[nH]c4cc(-c5ccco5)ccc4c3CCN2C1=O		inconclusive: 5.8 µM [activator, full curve, poor fit]
Cc1ccc(NC(=O)c2ccc(NCCN)c([N+](=O)[O-])c2)cc1		inconclusive: 29.1 µM [activator, partial curve, poor fit]
COc1ccc(N2C(N)=C(C#N)C(c3cccnc3)C3=C2CC(C)(C)CC3=O)cc1 (centres undefined)		inconclusive: 32.6 µM [activator, partial curve, poor fit]
CC(C)c1cc(C(=O)N/N=C/c2cccnc2)cs1		inconclusive: 0.0651 µM [activator, full curve, poor fit]
Cc1nn(-c2cc(N3CCCC3)ccc2[N+](=O)[O-])c(=O)c2ccccc12		inconclusive: 20 µM [activator, single point]
Cc1ccsc1C(=O)OCC(=O)Nc1cccc(F)c1		inconclusive: 0.366 µM [activator, full curve, poor fit]
O=S(=O)(c1cccc(COc2c(Cl)cccc2Cl)c1)N1CCOCC1		inconclusive: 0.58 µM [activator, partial curve, poor fit]
N=c1c(C(=O)NC2CCCC2)cc2c(=O)n3ccccc3nc2n1CCCN1CCOCC1		inconclusive: 1.84 µM [activator, full curve]
COc1cccc(/C=N/NC(=S)Nc2cccc(C(=O)O)c2)c1O	inactive: 8.78%	
C/C(=N\OCC(=O)OCC(=O)N(C)c1ccccc1)c1ccc2c(c1)OCO2	inactive: -8.31%	
